Measurements from US12606541B2, “PPARg modulators and methods of use” (Eisai R&D Management Co., Ltd., priority 2020, dated 2026).
At least one compound was matched to its structure with a doubt left. Some results were stated once for a whole list of compounds, not compound by compound.

These molecules were tested against T1, His6-TEV-PPARγ-(234-505) (Homo sapiens, UniProt P37231) (assay: TR-FRET Assay to Measure Co-R Peptide Recruitment to PPARγ). Conditions: Co-R peptide (SMRT-ID2) recruitment; top final concentration 20 μM; read-out: TR-FRET i-Ag; AC50.
T1 construct: The His6-TEV-PPARγ-(234-505) protein for assay was expressed and purified; TEV cleavage site (N); made in house
T1 sequence (P37231 234-505): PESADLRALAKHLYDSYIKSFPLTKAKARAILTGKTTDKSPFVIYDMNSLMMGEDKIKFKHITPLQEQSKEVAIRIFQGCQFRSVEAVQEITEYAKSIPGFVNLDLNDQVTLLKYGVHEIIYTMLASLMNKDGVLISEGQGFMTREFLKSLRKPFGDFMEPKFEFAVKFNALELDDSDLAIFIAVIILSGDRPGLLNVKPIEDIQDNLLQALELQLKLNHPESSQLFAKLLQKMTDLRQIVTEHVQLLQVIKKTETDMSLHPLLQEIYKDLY
Format: biochemical
Procedure: TR-FRET Assay to Measure Co—R Peptide Recruitment to PPARγ
The 2× detection solution contained anti-6×His-Terbium antibody (CisBio) and FITC labeled Co—R peptide (SMRT-ID2 from New England Peptide) at final concentrations of 5 and 200 nM respectively.
In these assay plates, the positive control in column 24 contained 500 nM (final) T0070907 and the negative control in column 23 contained an identical volume of DMSO. Then, 5 μL of 2+ protein working stock or controls were added to the plate and incubated for 20 minutes at room temperature. Reagents additions were performed with either a Combi (Thermo) or Mantis (Formulatory) pipetting device. The incubation was followed by addition of 5 μL of the 2× detection solution. Plates were covered, centrifuged, and incubated for an additional hour. The TR-FRET data was recorded with an Envision plate reader (Perkin Elmer), using settings recommended by Thermo Fisher. The TR-FRET signal of the positive and negative control's recruitment of FITC-Co—R peptide was used to normalize the TR-FRET signal to percent response and to determine the assay Z prime. Experiments were performed in triplicate and analyzed in GraphPad Prism 7.

Q: How did the AC50 turn out when COc1cc(-c2cc(C(=O)N3[C@@H]4CC[C@H]3C[C@H](C(=O)NC3CCC(C#N)(C(F)(F)F)CC3)C4)n[nH]2)c(F)cn1 (stereo partly drawn) [Example 438, (1R,3s,5S)—N-(4-cyano-4-(trifluoromethyl)cyclohexyl)-8-(5-(5-fluoro-2-methoxypyridin-4-yl)-1H-pyrazole-3-carbonyl)-8-azabicyclo[3.2.1]octane-3-carboxamide] was run?
A: 0.309 µM

Same assay, conditions: Co-R peptide recruitment to PPARγ; read-out: TR-FRET AC50

Q: Which AC50 does the source give for COc1cc(-c2cc(C(=O)N3C4CCC3CC(C#N)(C(=O)NCc3cccc(Cl)c3)C4)n[nH]2)c(Cl)cn1 (centres unmarked) here?
A: > 1 µM

Q: How did the AC50 turn out when O=C(N[C@H]1CC[C@@](O)(C(F)(F)F)CC1)[C@H]1C[C@H]2CC[C@@H](C1)N2C(=O)c1cc(-c2ccncc2C(F)(F)F)[nH]n1 was run?
A: > 1 µM

Q: COc1cc(-c2cc(C(=O)N3[C@@H]4CC[C@H]3C[C@H](C(=O)NC35CCC(C(F)(F)F)(CC3)CC5)C4)n[nH]2)c(F)cn1 was tested. Which AC50 did it give?
A: > 1 µM

Q: How did the AC50 turn out when COc1cc(-c2cc(C(=O)N3[C@@H]4CC[C@H]3C[C@H](C(=O)NC3CCS(=O)(=O)CC3)C4)n[nH]2)c(F)cn1 was run?
A: > 1 µM

Q: Which AC50 does the source give for COc1cc(-c2cc(C(=O)N3CC4CC(C3)C4C(=O)NCc3cccc(Cl)c3)n[nH]2)c(F)cn1 (centres unmarked) here?
A: > 1 µM

Q: With COc1cc(-c2cc(C(=O)N3CC[C@H](C(=O)NC4CC[C@@H]5CC[C@H]4N5C)CC34CC4)n[nH]2)c(F)cn1 (relative stereo) [(7S)-4-[5-(5-fluoro-2-methoxypyridin-4-yl)-1H-pyrazole-3-carbonyl]-N-[(1R,2R*,5R)-8-methyl-8-azabicyclo[3.2.1]octan-2-yl]-4-azaspiro[2.5]octane-7-carboxamide] as the molecule, how does the AC50 read?
A: > 1 µM

Q: How did the AC50 turn out when COc1cc(-c2cc(C(=O)N3CC[C@H](C(=O)NC4CCC5CCC4N5C)CC34CC4)n[nH]2)c(F)cn1 (stereo partly drawn) [(7S)-4-[5-(5-fluoro-2-methoxypyridin-4-yl)-1H-pyrazole-3-carbonyl]-N-{8-methyl-8-azabicyclo[3.2. 1]octan-2-yl}-4-azaspiro[2.5]octane-7-carboxamide] was run?
A: > 1 µM
